# Experiment: general procedure: Boc solid-phase peptide synthesis; NHCH2CH2SCH2-Resin (cysteamine-linked resin; PR II loading 1.7 mmol NH2/g); TBTU/HOBt (oxybenzotriazol esters)
# Conditions: conjugation step
row,Substance,conjugation yield
1,(Suc-Tyr)4-(Lys)2-Lys-NHCH2CH2S-Mal-βAla-CMG2-Ad-DOPE,76%
2,(Suc-Tyr)8-(Lys)4-(Lys)2-Lys-NHCH2CH2S-Mal-βAla-CMG2-Ad-DOPE,88%

# From patent publication US9821080B2 (priority 2011, dated 2017)
